Screening data, single-dose tests

Measurements from “University of Dundee, Small-Polar-MMV Screening Library” (2021), ChEMBL document CHEMBL3988442.

Results are given as percent effect. The controls that fix the scale are not given in the record; negative values are as filed. Compounds were drawn at random from those tested, without regard to their results.

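Whole-cell growth test on Mycobacterium tuberculosis, read after 3 days in glucose-containing 7H9 medium; the read-out is not stated. Compounds at 500 µM. Direction is inferred from retests: higher values go with more growth inhibition. About 18,000 compounds were tested under these conditions; 7.9% (about 1,400) showed 50% or more at least once.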

| # | structure | effect |
|---|---|---|
| 1 | `CNC1CCCCNC1=O` (stereo not shown) | -9.443 |
| 2 | `CCS(=O)(=O)c1ccc(S(=O)(=O)N2CC[C@H](N)C2)cc1` | 12.1 |
| 3 | `Cc1n[nH]c(C)c1CCN(C)C(=O)c1cccc(N)n1` | 2.224 |
| 4 | `Cn1cc(S(=O)(=O)NCCc2cccnc2)cn1` | 16.48 |
| 5 | `CCCC(NC(C)=O)C(=O)N(C)Cc1cc[nH]n1` (stereo not shown) | 1.971 |
| 6 | `COC(=O)N1CCC(NC2CCOCC2)C1` (stereo not shown) | 1.385 |
| 7 | `Nc1cc(-c2ccc3c(c2)OCCO3)n[nH]1` | -15.24 |
| 8 | `OCCCNc1cccc(Cl)c1-n1cccn1` | 55.47 |
| 9 | `NC(=O)CN1CCCN(C(=O)c2ccc(Br)o2)CC1` | -6.31 |
| 10 | `COCC(=O)N1C[C@@H](CN2CCCCC2)[C@@H](CO)C1` | -11.25 |
| 11 | `Cc1nnc(CN2CCCC(C(=O)NCC3CC3)C2)o1` (stereo not shown) | 2.142 |
| 12 | `Cc1cc(NC(=O)NCCN2CCC(C)CC2)n(C)n1` | 5.506 |
| 13 | `Cc1ccc2ncc(CO)cc2c1` | 31.59 |
| 14 | `NC(=O)C1CCCN(Cc2ccccc2Cl)C1` (stereo not shown) | 8.135 |
| 15 | `CCOc1ncccc1C(=O)N1CCC(COC)C1` (stereo not shown) | -0.4446 |
| 16 | `OC1(CNCCCn2cc(Cl)cn2)CCCNC1` (stereo not shown) | 18.75 |
| 17 | `O=C(Nc1c[nH]c(=O)[nH]c1=O)C1CCCO1` (stereo not shown) | 13.95 |
| 18 | `O=C(C1CCc2ccccc21)N1CCS(=O)(=O)CC1` (stereo not shown) | 9.931 |
| 19 | `CCOCCOCCNC` | 3.36 |
| 20 | `Cc1nn(CC(F)(F)F)c(C)c1N` | 10.03 |
| 21 | `Cc1cc(Br)cc2cc(C(=O)NC(C)(CO)CO)oc12` | 67.75 |
| 22 | `CC(O)CN(CCCNS(C)(=O)=O)C1CCCCC1` (stereo not shown) | 3.012 |
| 23 | `Cc1cc(C(=O)NC2CCC(=O)NC2)cc(Cl)c1Br` (stereo not shown) | 3.793 |
| 24 | `CN1C(=O)c2cccn2CC1CN` (stereo not shown) | 11.34 |
| 25 | `COCCN(C)CCC(N)c1ccccc1` (stereo not shown) | 15.76 |
| 26 | `COCCN(CCOC)C(=O)c1cc(F)cc(F)c1` | 2.221 |
| 27 | `Cc1nc(C)c(C(=O)NCCS(=O)(=O)CC(C)C)s1` | 17.75 |
| 28 | `COC(=O)N1CCN(C(=O)c2ccc(Br)cc2O)CC1` | 36.68 |
| 29 | `Cc1ccc(C(C)NC(=O)c2csc(S(N)(=O)=O)c2)o1` (stereo not shown) | 42.74 |
| 30 | `CN(C)C(CNC(=O)N1CCOCC1)c1ccsc1` (stereo not shown) | 19.8 |
| 31 | `CCN(CC)S(=O)(=O)c1ccc(CCC(=O)NC)cc1` | 31.51 |
| 32 | `CCC(C)NCC(=O)OC` (stereo not shown) | -8.79 |
| 33 | `COc1ncccc1C(=O)N(C)c1ncccc1C#N` | -7.087 |
| 34 | `CCc1ccccc1OCCN1CCOCC(O)C1` (stereo not shown) | 18.55 |
| 35 | `CCCOC1CCCN(C(=O)CCn2cnnn2)C1` (stereo not shown) | 8.208 |
| 36 | `Cc1nnc2n1CC(N)CC2` (stereo not shown) | 0.01564 |
| 37 | `CCOc1cccc(OCCNCCN)c1` | -11.41 |
| 38 | `O=c1ccccn1CCO` | -6.806 |
| 39 | `CC(C)Nc1ncccc1C(=O)Nc1nncs1` | -0.3607 |
| 40 | `O=C(CNC1CC1)NCCc1ccc(F)cc1` | 67 |
| 41 | `Cc1cc(CC(=O)N2C[C@@H](CO)[C@H](N(C)C)C2)on1` | -8.545 |
| 42 | `CCN1CCC(NC(=O)c2c(F)cccc2F)CC1` | 13.7 |
| 43 | `O=C(NC1CCCN(c2cccnc2)C1=O)C1CCC1` (stereo not shown) | -0.2866 |
| 44 | `CO[C@H]1CNC[C@H]1OC` | 0.03363 |
| 45 | `COC1CCN(CCC(=O)Nc2cccnc2)C1` (stereo not shown) | -10.06 |
| 46 | `Cc1cnn(CCNC(C)CC(N)=O)c1` (stereo not shown) | -11.98 |
| 47 | `CCn1ncnc1CN1C[C@H]2CC[C@@H](C1)[C@H]2N(C)C` | -0.3656 |
| 48 | `CNCc1ccc(C(=O)NC)o1` | 5.346 |
| 49 | `OCCc1cn2c(n1)CCCC2` | -5.574 |
| 50 | `OC1CCNC2(CCC2)C1` (stereo not shown) | -4.697 |
| 51 | `NC(=O)c1cccc(NC2CCCCNC2=O)c1` (stereo not shown) | -9.919 |
| 52 | `NS(=O)(=O)CCNC(=O)CCc1ccc(Br)cc1F` | 30.51 |
| 53 | `OCc1ccncc1NCc1ccccc1` | 21.51 |

Some entries from above, unchanged:

{"structure": "O=c1ccccn1CCO", "effect": -6.806}
{"structure": "OC1CCNC2(CCC2)C1", "stereo": "stereo not shown", "effect": -4.697}
{"structure": "Cc1nc(C)c(C(=O)NCCS(=O)(=O)CC(C)C)s1", "effect": 17.75}
{"structure": "CO[C@H]1CNC[C@H]1OC", "effect": 0.03363}